What all share (conditions): whole synthesis, scale of the general procedure 250 mg resin (0.29 mmol/g) or 500 mg resin (0.22-0.31 mmol/g)
Data set [1] in a line: general procedure: Fmoc solid-phase peptide synthesis; TentaGel S-PHB-Lys(Boc)Fmoc; preformed HObt esters generated by means of DIC.
Data set [2] is described as follows: general procedure: Fmoc solid-phase peptide synthesis; TentaGel S-NH2; preformed HObt esters generated by means of DIC.
Data set [3] in a line: general procedure: Fmoc solid-phase peptide synthesis; NovaSyn TG; preformed HObt esters generated by means of DIC.
Data set [4] is described as follows: general procedure: Fmoc solid-phase peptide synthesis; TentaGel S-RAM; preformed HObt esters generated by means of DIC.
The nature of data set [5]: general procedure: Fmoc solid-phase peptide synthesis; NovaSyn TG resin; preformed HObt esters generated by means of DIC.
Data set [6] is described as follows: general procedure: Fmoc solid-phase peptide synthesis; TentaGel S-RAM-Lys(Boc)Fmoc; preformed HObt esters generated by means of DIC.

For part of these data: Strings that start with PEPTIDE1 are HELM notation: dots part the residues, brackets hold end groups and non-standard residues. Bridges are numbered along the chain shown (N, C = ends).

On to “H-GGTYSCHFGPLTWVCKPQGGKKKKKK-OH (disulfide 6-15; SMILES CC(C)C[C@@H]1NC(=O)[C@@H]2CCCN2C(=O)CNC(=O)[C@H](Cc2ccccc2)NC(=O)[C@H](Cc2c[nH]cn2)NC(=O)[C@@H](NC(=O)[C@H](CO)NC(=O)[C@H](Cc2ccc(O)cc2)NC(=O)[C@@H](NC(=O)CNC(=O)CN)[C@@H](C)O)CSSC[C@@H](C(=O)N[C@@H](CCCCN)C(=O)N2CCC[C@H]2C(=O)N[C@@H](CCC(N)=O)C(=O)NCC(=O)NCC(=O)N[C@@H](CCCCN)C(=O)N[C@@H](CCCCN)C(=O)N[C@@H](CCCCN)C(=O)N[C@@H](CCCCN)C(=O)N[C@@H](CCCCN)C(=O)N[C@@H](CCCCN)C(=O)O)NC(=O)[C@H](C(C)C)NC(=O)[C@H](Cc2c[nH]c3ccccc23)NC(=O)[C@H]([C@@H](C)O)NC1=O)”, for which, in data set [1], the “final HPLC purity” value was “better than 98%” and the isolated yield was 27%.
“PEPTIDE1{S.V.S.E.I.Q.L.M.H.N.L.G.K.H.L.N.S.M.E.R.V.E.W.L.R.K.K.L.Q.D.V.H.N.F}$$$$V2.0”: in data set [2], the “final HPLC purity” value is reported as “better than 98%” and the isolated yield was found to be 6.1%.
With “PEPTIDE1{K.K.K.K.K.K.Y.G.G.F.L.K.K.K.K.K.K}$$$$V2.0”, in data set [3], the “crude HPLC purity” value is given as “better than 98%” and the crude yield is reported as 90%.
Regarding “PEPTIDE1{Y.G.G.F.L.K.K.K.K.K.K.K.K.K.K}$$$$V2.0”, in data set [1], the “final HPLC purity” value is on record as “better than 98%” and the isolated yield is recorded as 7.1%.
“PEPTIDE1{Y.G.G.F.L.[Orn].[Orn].[Orn].[Orn].[Orn].[Orn]}$$$$V2.0”: in data set [2], the “final HPLC purity” value was “better than 90%” and the isolated yield turned out to be 20%.
Turning to “pGlu-His-Trp-Ser-Tyr-Gly-Leu-Arg-Pro-Gly-(Lys-Glu)3 OH”, in data set [3], the “final HPLC purity” value is “better than 98%” and the isolated yield amounted to 43%.
Take “PEPTIDE1{H.A.E.G.T.F.T.S.D.V.S.S.Y.L.E.G.Q.A.A.K.E.F.I.A.W.L.V.K.G.R.K.K.K.K.K.K}$$$$V2.0”: in data set [1], the “final HPLC purity” value was “better than 98%” and the isolated yield is 11%.
For the substance H-WAGGDASGEKEKEKE-OH, in data set [3], the “crude HPLC purity” value is on record as “better than 98%” and the crude yield worked out at 91%.
PEPTIDE1{Y.G.G.F.L.K.E.E.E.E.K}$$$$V2.0: in data set [1], the “final HPLC purity” value is “better than 98%” and the isolated yield is given as 65%.
On to “PEPTIDE1{R.P.K.P.Q.Q.F.F.G.L.M.[am]}$$$$V2.0”, for which, in data set [4], the “final HPLC purity” value is on record as “better than 98%” and the isolated yield came to 12.3%.
Consider “H-(Lys)6-Gln-His-Trp-Ser-Tyr-Gly-Leu-Arg-Pro-Gly-NH2”, for which, in data set [4], the “crude HPLC purity” value was “better than 95%” and the crude yield is 20%.
Regarding PEPTIDE1{Y.G.G.F.L.K.K.E.E.E.K}$$$$V2.0, in data set [1], the “final HPLC purity” value is “better than 90%” and the isolated yield is 60%.
Consider H-Tyr-Gly-Gly-Phe-Leu-Glu6-OH, for which, in data set [3], the “crude HPLC purity” value is “better than 90%” and the crude yield is given as 76%.
For the substance “PEPTIDE1{K.K.K.K.K.K.S.V.S.E.I.Q.L.M.H.N.L.G.K.H.L.N.S.M.E.R.V.E.W.L.R.K.K.L.Q.D.V.H.N.F}$$$$V2.0”, in data set [2], the “final HPLC purity” value was “better than 90%” and the isolated yield came to 6.2%.
For “H-GGTYSCHFGPLTWVCKPQGG-OH (disulfide 6-15; SMILES CC(C)C[C@@H]1NC(=O)[C@@H]2CCCN2C(=O)CNC(=O)[C@H](Cc2ccccc2)NC(=O)[C@H](Cc2c[nH]cn2)NC(=O)[C@@H](NC(=O)[C@H](CO)NC(=O)[C@H](Cc2ccc(O)cc2)NC(=O)[C@@H](NC(=O)CNC(=O)CN)[C@@H](C)O)CSSC[C@@H](C(=O)N[C@@H](CCCCN)C(=O)N2CCC[C@H]2C(=O)N[C@@H](CCC(N)=O)C(=O)NCC(=O)NCC(=O)O)NC(=O)[C@H](C(C)C)NC(=O)[C@H](Cc2c[nH]c3ccccc23)NC(=O)[C@H]([C@@H](C)O)NC1=O)”, in that order: “better than 98%” and 22%.
PTH-(Lys-Glu)3: in data set [5] (HPLC), the “final HPLC purity” value is “better than 98%”. The same substance returned an isolated yield in data set [5] of 28%.
Consider “H-Arg-Pro-Lys-Pro-Gln-Gln-Phe-Phe-Gly-Leu-Met-Lys6-OH”, for which, in data set [3], the “crude HPLC purity” value is recorded as “better than 98%” and the crude yield is 80%.
Regarding H-KKKKKKYGGFL-OH, in data set [3], the “crude HPLC purity” value was “better than 98%” and the crude yield turned out to be 89%.
For PEPTIDE1{W.A.G.G.D.A.S.G.E}$$$$V2.0, in that order: “better than 98%” and 78%.
As to “PEPTIDE1{Y.G.G.F.L.[Dpr].[Dpr].[Dpr].[Dpr].[Dpr].[Dpr]}$$$$V2.0”, in data set [2], the “final HPLC purity” value is reported as “better than 98%” and the isolated yield was found to be 22%.
As for H-RPKPQQFFGLMKKKKKK-NH2, in data set [6], the “final HPLC purity” value is given as “better than 98%” and the isolated yield is recorded as 17.2%.
As for H-(Lys)6-Aib-His-2-D-Nal-D-Phe-Lys-NH2, in data set [4], the “crude HPLC purity” value is listed as “better than 95%” and the crude yield turned out to be 19%.
On to H-Aib-His-2-D-Nal-D-Phe-Lys-(Lys)6(-NH2, for which, in data set [6], the “final HPLC purity” value is given as “better than 90%” and the isolated yield stood at 35%.
On to “PEPTIDE1{H.A.E.G.T.F.T.S.D.V.S.S.Y.L.E.G.Q.A.A.K.E.F.I.A.W.L.V.K.G.R}$$$$V2.0”, for which, in data set [2], the “final HPLC purity” value is “better than 98%” and the isolated yield worked out at 8.7%.
For the substance “Glu-His-Trp-Ser-Tyr-Gly-Leu-Arg-Pro-Gly-Lys6 OH”, in data set [3], the “final HPLC purity” value was “better than 98%” and the isolated yield was 37%.
Regarding “PEPTIDE1{S.V.S.E.I.Q.L.M.H.N.L.G.K.H.L.N.S.M.E.R.V.E.W.L.R.K.K.L.Q.D.V.H.N.F.K.K.K.K.K.K}$$$$V2.0”, in data set [1], the “final HPLC purity” value is recorded as “better than 98%” and the isolated yield is recorded as 5.3%.
Turning to H-Tyr-Gly-Gly-Phe-Leu-Lys6-OH, in data set [3], the “crude HPLC purity” value is given as “better than 98%” and the crude yield was determined as 84%.
On to “H-Trp-Ala-Gly-Gly-Asp-Ala-Ser-Gly-Glu-Glu6-OH”, for which, in data set [3], the “crude HPLC purity” value was “better than 98%” and the crude yield was determined as 80%.
As to H-KKKKKKRPKPQQFFGLM-NH2, in data set [4], the “final HPLC purity” value is “better than 98%” and the isolated yield is recorded as 10.3%.
As for “PEPTIDE1{K.K.K.K.K.K.G.G.T.Y.S.C.H.F.G.P.L.T.W.V.C.K.P.Q.G.G}$PEPTIDE1,PEPTIDE1,12:R3-21:R3$$$V2.0”, in data set [2], the “final HPLC purity” value is recorded as “better than 98%” and the isolated yield stood at 12%.
As for “PEPTIDE1{Y.G.G.F.L.[Dbu].[Dbu].[Dbu].[Dbu].[Dbu].[Dbu]}$$$$V2.0”, in data set [2], the “final HPLC purity” value is on record as “better than 90%” and the isolated yield was determined as 22%.
Regarding “pGlu-His-Trp-Ser-Tyr-Gly-Leu-Arg-Pro-GIy-NH2”, in data set [4], the “crude HPLC purity” value was “better than 95%” and the crude yield amounted to 28%.
Turning to H-Aib-His-2-D-Nal-D-Phe-Lys-NH2, in data set [4], the “crude HPLC purity” value is on record as “better than 95%” and the crude yield is given as 21%.

(Values after US7414107B2 (priority 1998, dated 2008).)
